Laboratory results as given in patent US20210332111A1.
These are yes or no findings as the source states them, for the method shown. Some results given as binding are weak or reduced against the parent protein; the word gives no strength.

Biological target: recombinant ZIKV DIII (domain III of the E protein, strain H/PF/2013, residues 299 to 407) (Zika virus, strain H/PF/2013)
Experiment: co-crystal structure

binding: binds
B1: ZV-48 scFv (scFv)
scFv: DIVMSQSPSSLAVSVGEKITMSCKSSQSLLYSNNEKNYLAWYQQKPGQSPKLLIYWASARDSGVPDRFTGSGSGTDFTLTISSVKAEDLAVFYCQQYYSYPYTFGGGTKLEIKGGGGSGGGGSGGGGSQVQLQQPGAELLKPGASVKLSCKASGYSFSNYWMHWVKQRPGQGPEWIGMIHPNSGNTKYNEKFKNKATLTVDKSSSMVYMQLSSLTSEDSAVFYCARLGNDMDYWGQGTSVTVSS
